From article PMC3271061
No constants are given. Whether binding was seen depends on the method and setting. Some binding calls cover weakened binding; strength is not graded here.

T1: AtASY1 (Arabidopsis thaliana) (UniProt F4HRV8)
T1 sequence: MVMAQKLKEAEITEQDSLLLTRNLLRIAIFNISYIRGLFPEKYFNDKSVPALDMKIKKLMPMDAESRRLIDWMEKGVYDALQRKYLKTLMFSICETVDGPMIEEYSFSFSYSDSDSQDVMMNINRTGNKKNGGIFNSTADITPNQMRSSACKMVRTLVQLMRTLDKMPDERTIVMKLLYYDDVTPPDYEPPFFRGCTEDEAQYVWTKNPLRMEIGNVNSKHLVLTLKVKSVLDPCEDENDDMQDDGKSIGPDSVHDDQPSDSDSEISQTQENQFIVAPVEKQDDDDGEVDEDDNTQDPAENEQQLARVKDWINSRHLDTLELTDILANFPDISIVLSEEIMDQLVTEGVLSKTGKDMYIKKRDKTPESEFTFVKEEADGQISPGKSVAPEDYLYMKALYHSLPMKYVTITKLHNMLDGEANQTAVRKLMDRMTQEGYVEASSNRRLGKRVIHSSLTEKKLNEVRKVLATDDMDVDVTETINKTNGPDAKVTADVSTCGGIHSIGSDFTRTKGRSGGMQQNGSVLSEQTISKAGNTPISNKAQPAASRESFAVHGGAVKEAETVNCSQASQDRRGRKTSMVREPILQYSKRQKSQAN

T2: AtASY3 (Arabidopsis thaliana) (UniProt Q0WR66)
T2 sequence: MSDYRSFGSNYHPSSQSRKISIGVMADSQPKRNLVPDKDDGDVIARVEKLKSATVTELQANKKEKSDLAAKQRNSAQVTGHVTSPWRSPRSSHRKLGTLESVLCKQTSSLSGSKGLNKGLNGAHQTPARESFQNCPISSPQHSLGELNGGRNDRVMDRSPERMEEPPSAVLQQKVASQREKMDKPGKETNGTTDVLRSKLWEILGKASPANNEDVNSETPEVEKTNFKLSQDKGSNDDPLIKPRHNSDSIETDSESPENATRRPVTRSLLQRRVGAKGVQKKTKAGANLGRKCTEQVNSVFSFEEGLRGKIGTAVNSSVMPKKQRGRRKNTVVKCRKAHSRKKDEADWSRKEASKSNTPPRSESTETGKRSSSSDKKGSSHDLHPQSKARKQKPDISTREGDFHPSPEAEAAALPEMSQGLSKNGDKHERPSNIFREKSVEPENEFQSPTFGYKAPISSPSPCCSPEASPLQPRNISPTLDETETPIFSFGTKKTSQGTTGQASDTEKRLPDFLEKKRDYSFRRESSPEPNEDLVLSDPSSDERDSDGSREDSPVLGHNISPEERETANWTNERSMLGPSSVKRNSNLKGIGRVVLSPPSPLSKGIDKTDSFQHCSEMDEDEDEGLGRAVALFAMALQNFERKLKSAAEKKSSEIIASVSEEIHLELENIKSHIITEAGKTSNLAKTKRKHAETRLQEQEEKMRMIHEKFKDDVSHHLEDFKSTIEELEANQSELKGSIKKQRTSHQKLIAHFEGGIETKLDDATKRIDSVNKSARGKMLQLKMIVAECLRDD


Key:
[1] = target: T1, AtASY1 (Arabidopsis thaliana); assay: two-hybrid; GAL4 DBD (pGBKT7) and GAL4 AD (pGADT7) fusions co-transformed into Y2HGold yeast; growth on SD -Leu/-Trp/-His and SD -Leu/-Trp/-His/-Ade; drop test with serial dilutions, 30°C, 2 days
[2] = target: T2, AtASY3 (Arabidopsis thaliana); assay: as above

| binding [1] | binding [2] | Binder |
| --- | --- | --- |
| binds |  | AtASY3 (protein, UniProt Q0WR66 1-793) MSDYRSFGSNYHPSSQSRKISIGVMADSQPKRNLVPDKDDGDVIARVEKLKSATVTELQANKKEKSDLAAKQRNSAQVTGHVTSPWRSPRSSHRKLGTLESVLCKQTSSLSGSKGLNKGLNGAHQTPARESFQNCPISSPQHSLGELNGGRNDRVMDRSPERMEEPPSAVLQQKVASQREKMDKPGKETNGTTDVLRSKLWEILGKASPANNEDVNSETPEVEKTNFKLSQDKGSNDDPLIKPRHNSDSIETDSESPENATRRPVTRSLLQRRVGAKGVQKKTKAGANLGRKCTEQVNSVFSFEEGLRGKIGTAVNSSVMPKKQRGRRKNTVVKCRKAHSRKKDEADWSRKEASKSNTPPRSESTETGKRSSSSDKKGSSHDLHPQSKARKQKPDISTREGDFHPSPEAEAAALPEMSQGLSKNGDKHERPSNIFREKSVEPENEFQSPTFGYKAPISSPSPCCSPEASPLQPRNISPTLDETETPIFSFGTKKTSQGTTGQASDTEKRLPDFLEKKRDYSFRRESSPEPNEDLVLSDPSSDERDSDGSREDSPVLGHNISPEERETANWTNERSMLGPSSVKRNSNLKGIGRVVLSPPSPLSKGIDKTDSFQHCSEMDEDEDEGLGRAVALFAMALQNFERKLKSAAEKKSSEIIASVSEEIHLELENIKSHIITEAGKTSNLAKTKRKHAETRLQEQEEKMRMIHEKFKDDVSHHLEDFKSTIEELEANQSELKGSIKKQRTSHQKLIAHFEGGIETKLDDATKRIDSVNKSARGKMLQLKMIVAECLRDD |
|  | binds | AtASY1 (protein, UniProt F4HRV8 1-596) MVMAQKLKEAEITEQDSLLLTRNLLRIAIFNISYIRGLFPEKYFNDKSVPALDMKIKKLMPMDAESRRLIDWMEKGVYDALQRKYLKTLMFSICETVDGPMIEEYSFSFSYSDSDSQDVMMNINRTGNKKNGGIFNSTADITPNQMRSSACKMVRTLVQLMRTLDKMPDERTIVMKLLYYDDVTPPDYEPPFFRGCTEDEAQYVWTKNPLRMEIGNVNSKHLVLTLKVKSVLDPCEDENDDMQDDGKSIGPDSVHDDQPSDSDSEISQTQENQFIVAPVEKQDDDDGEVDEDDNTQDPAENEQQLARVKDWINSRHLDTLELTDILANFPDISIVLSEEIMDQLVTEGVLSKTGKDMYIKKRDKTPESEFTFVKEEADGQISPGKSVAPEDYLYMKALYHSLPMKYVTITKLHNMLDGEANQTAVRKLMDRMTQEGYVEASSNRRLGKRVIHSSLTEKKLNEVRKVLATDDMDVDVTETINKTNGPDAKVTADVSTCGGIHSIGSDFTRTKGRSGGMQQNGSVLSEQTISKAGNTPISNKAQPAASRESFAVHGGAVKEAETVNCSQASQDRRGRKTSMVREPILQYSKRQKSQAN |
